The results are deposited in PubChem (AID1224904; Broad Institute, 2016).

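Selective DUX4 reporter inhibition in doxycycline-induced 293T-iDUX4 cells, scored as Gaussia percent activity minus Italica percent activity, after a 24-hour treatment. The test concentration is not given here. Percent difference between the Gaussia and Italica channels; more negative values mean more selective suppression of the DUX4 reporter, and higher values mean less activity.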

Values are in %. How 0% and 100% were set is not given here. Common to all entries: measured here: selective DUX4 reporter inhibition. Part of the compounds only, not a random draw; the main read-out is not listed here.

| structure | Gaussia minus Italica difference (%) |
|---|---|
| `CN(C)C(=O)c1ccc(-c2ccc3c(c2)[C@H]2[C@H](CCN2C(=O)c2ccccc2F)[C@H](CO)N3)cc1` | -8.477 |
| `COc1ccc(S(=O)(=O)N2CC[C@@H]3[C@H]2c2cc(-c4cccc(C#N)c4)ccc2N[C@@H]3CO)cc1` | 1.306 |
| `O=S(=O)(c1ccccc1)N1CC2(C1)[C@@H](c1ccccc1)[C@H](CO)N2CC1CC1` | -3.621 |
| `C[C@H]1CN([C@@H](C)CO)C(=O)c2c(c3ccccc3n2C)-c2ccccc2CO[C@H]1CN(C)S(=O)(=O)c1ccc([N+](=O)[O-])cc1` | 17.8 |
| `OC[C@H]1Nc2ccc(-c3ccccc3)cc2[C@@H]2[C@H]1CCN2Cc1ccccc1F` | 25.26 |
| `CO[C@H]1CN(C)C(=O)c2ccc(NC(=O)c3cccc(F)c3)cc2OC[C@@H](C)N(CC2CC2)C[C@@H]1C` | -8.795 |
| `COc1ccc(-c2ccc(C3[C@@H]4CN(Cc5ccccn5)C[C@H]3N4)cc2)cc1` (stereo partly specified) | 1.708 |
| `C[C@@H]1CN([C@@H](C)CO)C(=O)c2c(c3ccccc3n2C)-c2ccccc2CO[C@@H]1CN(C)Cc1cccc(F)c1` | -2.889 |
| `O=C(c1ccc2c(c1)OCO2)N1CC(=O)N2[C@@H](CO)[C@H](c3ccc(C#CC4CCCC4)cc3)[C@@H]2C1` | -8.207 |
| `O=S(=O)(c1cccs1)N1CCCCN2[C@H](C1)[C@H](c1ccc(/C=C/c3ccccc3)cc1)[C@@H]2CO` | 7.983 |
| `CO[C@H]1CN(C)C(=O)c2cc(NS(=O)(=O)c3cccc(F)c3)ccc2OC[C@@H](C)N(Cc2cc(F)ccc2F)C[C@H]1C` | 5.059 |
| `N#C[C@H]1[C@@H](c2ccccc2-c2ccc(F)cc2)[C@H](CO)N1c1ncc(-c2ccccc2)s1` | 1.264 |
| `Cc1ccccc1S(=O)(=O)N1CCCCN2[C@H](C1)[C@H](c1ccc(-c3cccnc3)cc1)[C@@H]2CO` | -17.62 |
| `CN1c2ccc(C#Cc3cccnc3)cc2[C@H]2[C@H](CCN2S(=O)(=O)c2ccc(F)cc2)[C@@H]1CO` | -11.91 |
| `CCCNC(=O)N1CC2(CN(S(=O)(=O)c3ccc(OC)cc3)C2)c2c(n(C)c3cc(OC)ccc23)[C@@H]1CO` | -7.99 |
| `O=C(Nc1ccccc1F)N1CCCCN2[C@H](CO)[C@@H](c3ccc(/C=C/c4ccccc4)cc3)[C@@H]2C1` | -23.52 |
| `O=C(C[C@@H]1CC[C@H]2[C@@H](COC[C@@H](O)CN2C(=O)c2ccccc2F)O1)NCc1ccc(Cl)c(Cl)c1` | -2.441 |
| `COc1ccc(NC(=O)Nc2ccc3c(c2)[C@@H]2C[C@@H](CC(=O)N4CCc5ccccc5C4)O[C@@H](CO)[C@@H]2O3)cc1` | -12.86 |
| `O=C(C[C@H]1C[C@@H]2c3cc(NC(=O)Nc4ccc(C(F)(F)F)cc4)ccc3O[C@@H]2[C@H](CO)O1)NCCc1ccccc1` | -18.97 |
| `COc1ccccc1CN1CC[C@@H]2[C@H](CO)Nc3ccc(-c4cccc(F)c4)cc3[C@@H]21` | -24.74 |
| `CCS(=O)(=O)N1CC2(CN(C(=O)Nc3cccc(F)c3)[C@@H](CO)c3c2c2ccc(OC)cc2n3C)C1` | -5.655 |
| `CO[C@@H]1CN(C)C(=O)c2cc(NS(=O)(=O)c3cccc(F)c3)ccc2OC[C@@H](C)N(Cc2cc(F)ccc2F)C[C@H]1C` | -15.84 |
| `CO[C@@H]1CN(C)C(=O)c2cc(NC(=O)Nc3ccc(Cl)c(Cl)c3)ccc2OC[C@@H](C)NC[C@@H]1C` | 14.27 |
| `C[C@H](CO)N1C[C@H](C)[C@H](CN(C)C(=O)[C@@H](Cc2ccccc2)N(C)C)OCc2ccccc2-c2c(n(C)c3ccccc23)C1=O` | -5.974 |
| `CCS(=O)(=O)N1CC2(CCN(Cc3cccc(OC)c3)CC2)c2c([nH]c3cc(OC)ccc23)[C@@H]1CO` | 22.23 |
| `O=C(C1CCCC1)N1CC2(C1)[C@H](c1ccccc1)[C@H](CO)N2CC1CCCC1` | -9.321 |
| `O=C(C[C@H]1C[C@H]2c3cc(NC(=O)c4ccc5c(c4)OCO5)ccc3O[C@H]2[C@H](CO)O1)NCCc1ccccc1` | -17.59 |
| `COc1cccc(S(=O)(=O)N2CC[C@@H]3[C@@H](CO)Nc4ccc(-c5ccccc5OC)cc4[C@@H]32)c1` | 35.44 |
| `CN1c2ccc(C#Cc3cccnc3)cc2[C@H]2[C@H](CCN2C(=O)C2CCCCC2)[C@H]1CO` | 1.279 |
| `CN(C)C(=O)c1cccc(-c2ccc3n(c2=O)C[C@@H]2[C@@H](CO)[C@H](C(=O)NCC(F)(F)F)[C@H]3N2C)c1` | -23.37 |
| `COc1ccc(-c2ccc3c(c2)[C@@H]2[C@@H](CCN2C(=O)Cc2ccccn2)[C@@H](CO)N3C)cc1` | -14.75 |
| `OC[C@@H]1[C@H](c2ccc(C#Cc3ccccc3)cc2)[C@@H]2CN(Cc3cncnc3)CCCCN12` | -5.049 |
| `OC[C@@H]1[C@H](c2ccc(C#Cc3ccccc3)cc2)[C@H]2CN(CC3CCOCC3)CCCCN12` | -2.638 |
| `Cc1ccccc1S(=O)(=O)N1C[C@H](O)COC[C@H]2O[C@@H](CC(=O)NCc3ccccc3Cl)CC[C@@H]21` | -14.37 |
| `Cc1cccc(-c2ccc([C@H]3[C@H]4CN(Cc5ccncc5)CCCCN4[C@H]3CO)cc2)c1` | -0.208 |
| `O=C(Nc1cc(F)ccc1F)N1CC(=O)N2[C@H](C1)[C@@H](c1ccc(-c3ccc(F)cc3)cc1)[C@@H]2CO` | 0.9508 |
| `COc1ccc(-c2ccc3c(c2)[C@H]2[C@H](CCN2S(=O)(=O)c2ccccc2C)[C@H](CO)N3C)cc1` | 10.08 |
| `COC(=O)[C@@H]1[C@@H](CO)[C@@H]2Cn3c(ccc(-c4ccccc4)c3=O)[C@@H]2N1CC1CCCCC1` | 2.219 |
| `CO[C@H]1CN(C)C(=O)c2cc(NC(=O)c3cnccn3)ccc2OC[C@H](C)N(CCc2ccccc2)C[C@@H]1C` | -13.22 |
| `CCN1[C@@H]2Cn3c(ccc(/C=C/c4ccccc4)c3=O)[C@H]1[C@@H](C(=O)N1CCCCC1)[C@@H]2CO` | -10.98 |
| `COc1ccc2c3c([nH]c2c1)[C@H](CO)N(C(=O)Nc1ccc(F)cc1)CC31CCN(C(=O)c2ccccc2F)CC1` | -10.97 |
| `COc1ccccc1CN1[C@H](CO)[C@@H](c2ccccc2)C12CN(C(=O)Cc1ccccc1)C2` | -24.85 |
| `O=C(Cc1ccccc1)N1CC[C@@H]2[C@H]1c1cc(-c3cccc(F)c3)ccc1N[C@@H]2CO` | -12 |
| `COc1ccc(CN2CC3(CN(C(=O)Cc4ccccc4)C3)c3c([nH]c4cc(OC)ccc34)[C@@H]2CO)cc1` | -16.78 |
| `Cc1ccc(-c2ccccc2[C@H]2[C@@H](CO)N(C(=O)NC3CCCC3)[C@H]2C#N)cc1` | 5.04 |
| `O=C(Nc1ccc(F)cc1)N1C[C@@H]2N[C@H](C1)C2c1ccc(/C=C/c2ccccc2)cc1` (stereo partly specified) | 1.014 |
| `COc1ccc2c3c(n(C)c2c1)[C@H](CO)N(C(=O)c1ccccc1)CC31CN(CC2CC2)C1` | -3.418 |
| `O=C(C[C@@H]1C[C@H]2c3cc(NS(=O)(=O)c4ccc(F)cc4)ccc3O[C@H]2[C@H](CO)O1)NCc1ccc(Cl)cc1` | 13.72 |
| `COc1ccc2c3c([nH]c2c1)[C@@H](CO)N(Cc1ccccc1)CC31CCN(CC2CC2)CC1` | 28.71 |
| `CC(C)NC(=O)N1[C@H](CO)[C@@H](c2ccccc2)C12CN(Cc1ccc(Cl)cc1)C2` | -9.925 |
| `COc1ccc2c3c(n(C)c2c1)[C@H](CO)N(Cc1ccccc1)CC31CN(CC2CC2)C1` | -9.553 |
| `O=C(Nc1ccccc1)N1CCCCN2[C@H](CO)[C@@H](c3ccc(Br)cc3)[C@@H]2C1` | -15.42 |
| `CO[C@@H]1CN(C)C(=O)c2cc(NC(=O)c3ccc(Oc4ccccc4)cc3)ccc2OC[C@@H](C)NC[C@H]1C` | 23.08 |
| `COc1ccccc1NC(=O)N(C)C[C@@H]1OCc2ccccc2-c2c(n(C)c3ccccc23)C(=O)N([C@H](C)CO)C[C@@H]1C` | 3.159 |
| `O=C(Nc1cccc(F)c1)N1CC(=O)N2[C@@H](CO)[C@@H](c3ccc(C#CCC4CCCC4)cc3)[C@@H]2C1` | -16.02 |
| `O=C(c1cccc(F)c1)N1CCCCN2[C@H](C1)[C@@H](c1ccc(C#CC3(O)CCCC3)cc1)[C@@H]2CO` | -5.241 |
| `CO[C@@H]1CN(C)C(=O)c2cc(NC(=O)Nc3ccc(Cl)c(Cl)c3)ccc2OC[C@H](C)NC[C@H]1C` | -11.57 |
| `O=C(C[C@@H]1CC[C@H]2[C@@H](COC[C@H](O)CN2C(=O)Nc2ccc(C(F)(F)F)cc2)O1)NCC1CCCCC1` | -0.9645 |
| `c1cncc(-c2ccc(C3[C@@H]4CN(Cc5ccc6c(c5)OCO6)C[C@H]3N4)cc2)c1` (stereo partly specified) | -16.34 |
| `O=S(=O)(c1cccs1)N1CCCCN2[C@H](CO)[C@H](c3ccc(Br)cc3)[C@H]2C1` | -14.7 |
| `O=S(=O)(c1ccccc1F)N1CC[C@@H]2[C@H](CO)Nc3ccc(C4=CCCCC4)cc3[C@@H]21` | 5.301 |
| `CN(C)C(=O)c1cccc(-c2ccc3c(c2)[C@H]2[C@H](CCN2Cc2ccccc2F)[C@@H](CO)N3)c1` | -3.695 |
| `O=C(Nc1ccc2c(c1)[C@H]1C[C@H](CC(=O)N3CCc4ccccc4C3)O[C@H](CO)[C@H]1O2)c1ccc2c(c1)OCO2` | -7.39 |
| `COc1ccc2c3c(n(C)c2c1)[C@H](CO)N(C(=O)Nc1cccc(F)c1)CC31CCN(C)CC1` | -14.46 |
| `COc1ccc(-c2ccc3c(c2)[C@@H]2[C@@H](CCN2C(=O)Nc2ccccc2OC)[C@@H](CO)N3C)cc1` | 14.78 |